Results are given in words; binding and its absence hold for the method and conditions named. Binding seen in cells or lysates may run through a third protein. Some results given as binding are weak or reduced against the parent protein; the word gives no strength. Where a sequence is shown, tags or fusion partners need not be part of it.
What was measured:
[1] = target: T1, Ig.nephrin, membrane-bound fusion protein of nephrin AA 1087-1221 (human) (UniProt O60500); experiment: co-IP; HEK293T transiently transfected (Ig.nephrin fusion, partner, AT1 receptor), with or without Ang II (1 μM, up to 60 min) and inhibitors (candesartan, PP2, PTX, Ly294002, U73122) or GNAQ siRNA; 1% Triton X-100 lysate, protein G sepharose 1 h at 4 °C; Western blot
T1 sequence: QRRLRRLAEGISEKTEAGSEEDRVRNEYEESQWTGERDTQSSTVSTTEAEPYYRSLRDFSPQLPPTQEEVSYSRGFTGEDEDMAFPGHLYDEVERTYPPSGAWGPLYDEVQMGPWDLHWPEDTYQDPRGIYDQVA

Chains of the proteins cited; added tags and fusions are not shown.
UniProt P29067: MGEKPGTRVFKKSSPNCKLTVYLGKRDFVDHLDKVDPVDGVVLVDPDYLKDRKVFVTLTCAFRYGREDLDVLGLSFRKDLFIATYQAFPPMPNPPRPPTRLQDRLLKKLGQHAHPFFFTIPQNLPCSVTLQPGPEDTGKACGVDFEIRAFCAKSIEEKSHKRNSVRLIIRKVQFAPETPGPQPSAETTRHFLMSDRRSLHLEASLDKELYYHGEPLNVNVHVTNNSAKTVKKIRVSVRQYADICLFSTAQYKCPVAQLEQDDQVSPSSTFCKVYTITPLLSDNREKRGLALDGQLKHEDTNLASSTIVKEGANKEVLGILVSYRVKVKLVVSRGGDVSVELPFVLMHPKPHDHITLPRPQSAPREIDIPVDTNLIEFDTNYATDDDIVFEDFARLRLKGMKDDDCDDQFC
UniProt O43639: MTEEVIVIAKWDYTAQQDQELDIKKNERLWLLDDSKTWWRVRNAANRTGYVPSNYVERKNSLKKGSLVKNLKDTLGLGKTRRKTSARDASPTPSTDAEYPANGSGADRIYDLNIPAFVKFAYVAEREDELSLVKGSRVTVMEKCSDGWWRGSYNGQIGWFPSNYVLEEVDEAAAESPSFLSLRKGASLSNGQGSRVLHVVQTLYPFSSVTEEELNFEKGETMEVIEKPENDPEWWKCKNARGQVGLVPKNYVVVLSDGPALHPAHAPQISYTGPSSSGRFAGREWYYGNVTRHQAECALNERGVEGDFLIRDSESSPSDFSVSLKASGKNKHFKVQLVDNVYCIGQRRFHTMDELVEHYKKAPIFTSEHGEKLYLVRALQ

[2] = target: T2, Ig.nephrin, membrane-bound fusion protein of the C-terminal cytoplasmic domain of nephrin (AA 1087-1241) (human) (UniProt O60500); experiment: as above
T2 sequence: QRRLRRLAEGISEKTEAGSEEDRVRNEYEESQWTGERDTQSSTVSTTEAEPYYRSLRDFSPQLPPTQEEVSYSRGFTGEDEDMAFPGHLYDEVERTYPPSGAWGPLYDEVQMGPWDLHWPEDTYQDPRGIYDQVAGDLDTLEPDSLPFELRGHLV

binding [1]	binding [2]	Substance
binds	binds	FLAG-tagged β-arrestin2 (from UniProt P29067 1-410)
	binds	Nck2 (from UniProt O43639 1-380)
